Data source: PubChem BioAssay AID1259424 (University of Nebraska Medical Center, 2018)
This is an unselected part of about 14,000 reagents. 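Higher correlation or smaller distance means closer resemblance to KSR1 loss; control wells, including KSR1 knockdowns, recur on many plates.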 The numbers tell different reagents against one gene apart. Not all columns of the deposit are shown. The record does not give: the time to read-out.

- Purpose: 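Find knockdowns that reproduce the expression shifts seen after KSR1 loss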 (primary screen)
- Cells: human HCT116 colon cancer cells
- Reagent: siRNA pool against human genes, 50 nM
- Measured: 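Six signature mRNAs by branched-DNA multiplex assay, scaled to two housekeeping genes and non-targeting median, log2; matched to mean KSR1 knockdown profile by Pearson correlation and euclidean distance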
- Scale: mean correlation with KSR1 profile: higher = expression change more like KSR1 knockdown; mean distance from KSR1 profile: higher = expression change less like KSR1 knockdown

How did the screen score TNFRSF25?
mean correlation with KSR1 profile: -0.292; mean distance from KSR1 profile: 2.34

What did the screen give for WDR44?
mean correlation with KSR1 profile: -0.311; mean distance from KSR1 profile: 2.88

What is on record for DHCR7?
mean correlation with KSR1 profile: 0.479; mean distance from KSR1 profile: 5.12

For NINJ2, what does the deposit list?
mean correlation with KSR1 profile: 0.0983; mean distance from KSR1 profile: 2.15

With SH3TC2, what was measured?
mean correlation with KSR1 profile: 0.271; mean distance from KSR1 profile: 3.73

For INPPL1, what was measured?
mean correlation with KSR1 profile: 0.0592; mean distance from KSR1 profile: 1.78

What did the screen give for PSME2?
mean correlation with KSR1 profile: -0.0713; mean distance from KSR1 profile: 1.43

With ZC3H10, what was measured?
mean correlation with KSR1 profile: 0.259; mean distance from KSR1 profile: 2.75

What is on record for ZNF594?
mean correlation with KSR1 profile: 0.595; mean distance from KSR1 profile: 1.19

With ZNF571, how do the results read?
mean correlation with KSR1 profile: -0.0477; mean distance from KSR1 profile: 1.34

For MCM8, how do the results read?
mean correlation with KSR1 profile: 0.4; mean distance from KSR1 profile: 2.27

For PPWD1, how do the results read?
mean correlation with KSR1 profile: -0.287; mean distance from KSR1 profile: 2

What did the screen give for PITRM1?
mean correlation with KSR1 profile: 0.409; mean distance from KSR1 profile: 1.19

Which result is listed for RYR2?
mean correlation with KSR1 profile: -0.785; mean distance from KSR1 profile: 1.99

With MYC, what does the deposit list?
mean correlation with KSR1 profile: -0.125; mean distance from KSR1 profile: 2.28

How did the screen score GRHL1?
mean correlation with KSR1 profile: -0.218; mean distance from KSR1 profile: 2.84

With DNAH11, how do the results read?
mean correlation with KSR1 profile: 0.22; mean distance from KSR1 profile: 1.68

For ZNF280C, what does the deposit list?
mean correlation with KSR1 profile: 0.601; mean distance from KSR1 profile: 2.83

Ordered by “mean correlation with KSR1 profile” (high to low): 4 of the entries above.
ZNF280C — mean correlation with KSR1 profile: 0.601; mean distance from KSR1 profile: 2.83
DNAH11 — mean correlation with KSR1 profile: 0.22; mean distance from KSR1 profile: 1.68
MYC — mean correlation with KSR1 profile: -0.125; mean distance from KSR1 profile: 2.28
GRHL1 — mean correlation with KSR1 profile: -0.218; mean distance from KSR1 profile: 2.84

Next entries follow:
With SRD5A3, how do the results read?
mean correlation with KSR1 profile: 0.584; mean distance from KSR1 profile: 1.13

For UNKL #1, what was measured?
mean correlation with KSR1 profile: 0.57; mean distance from KSR1 profile: 1.22

With UNKL #2, what does the deposit list?
mean correlation with KSR1 profile: -0.22; mean distance from KSR1 profile: 2.1

How did the screen score CES1?
mean correlation with KSR1 profile: 0.402; mean distance from KSR1 profile: 2.52

How did the screen score FIP1L1?
mean correlation with KSR1 profile: -0.107; mean distance from KSR1 profile: 3.19

How did the screen score TAF3?
mean correlation with KSR1 profile: 0.687; mean distance from KSR1 profile: 2.23

What did the screen give for CTRB1?
mean correlation with KSR1 profile: 0.59; mean distance from KSR1 profile: 1.89

Which result is listed for CDIN1?
mean correlation with KSR1 profile: 0.0255; mean distance from KSR1 profile: 2.54

With ITGB8, what was measured?
mean correlation with KSR1 profile: -0.212; mean distance from KSR1 profile: 2.05

With LDAF1, what was measured?
mean correlation with KSR1 profile: 0.121; mean distance from KSR1 profile: 1.33
